The target in assay [1] is HA-SNAP-mGluR2 (rat metabotropic glutamate receptor 2) (rat) (UniProt P31421). The experiment in a line: single molecule pulldown.
Assay [2] concerns the target HA-SNAP-mGluR5 (human metabotropic glutamate receptor 5) (human) (UniProt P41594). The experiment in a line: single molecule pulldown.

Chains of the proteins cited; added tags and fusions are not shown. Residues count along the entry.
UniProt P31421, 19-872: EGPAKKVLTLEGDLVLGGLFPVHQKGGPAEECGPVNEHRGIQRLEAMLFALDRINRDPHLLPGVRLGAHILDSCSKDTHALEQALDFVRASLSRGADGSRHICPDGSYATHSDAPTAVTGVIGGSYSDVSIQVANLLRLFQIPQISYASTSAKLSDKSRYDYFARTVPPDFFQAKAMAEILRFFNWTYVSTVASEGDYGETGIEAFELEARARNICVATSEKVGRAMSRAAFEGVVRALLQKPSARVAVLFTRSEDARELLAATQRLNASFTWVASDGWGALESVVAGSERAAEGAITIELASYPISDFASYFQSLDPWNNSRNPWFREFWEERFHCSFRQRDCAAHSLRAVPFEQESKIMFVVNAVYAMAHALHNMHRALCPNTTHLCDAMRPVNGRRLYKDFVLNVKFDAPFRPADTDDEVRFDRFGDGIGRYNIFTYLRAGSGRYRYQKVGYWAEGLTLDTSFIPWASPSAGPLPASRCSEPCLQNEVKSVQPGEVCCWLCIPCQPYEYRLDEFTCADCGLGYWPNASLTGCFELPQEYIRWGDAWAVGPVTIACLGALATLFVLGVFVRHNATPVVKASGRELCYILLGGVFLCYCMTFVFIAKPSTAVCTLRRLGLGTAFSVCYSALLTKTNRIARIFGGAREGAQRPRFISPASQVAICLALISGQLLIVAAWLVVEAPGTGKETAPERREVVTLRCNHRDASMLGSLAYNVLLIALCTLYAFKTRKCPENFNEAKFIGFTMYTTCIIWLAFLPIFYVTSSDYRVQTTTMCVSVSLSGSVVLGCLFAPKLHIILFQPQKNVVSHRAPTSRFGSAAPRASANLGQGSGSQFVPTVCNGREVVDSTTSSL
UniProt P41594, 21-1212: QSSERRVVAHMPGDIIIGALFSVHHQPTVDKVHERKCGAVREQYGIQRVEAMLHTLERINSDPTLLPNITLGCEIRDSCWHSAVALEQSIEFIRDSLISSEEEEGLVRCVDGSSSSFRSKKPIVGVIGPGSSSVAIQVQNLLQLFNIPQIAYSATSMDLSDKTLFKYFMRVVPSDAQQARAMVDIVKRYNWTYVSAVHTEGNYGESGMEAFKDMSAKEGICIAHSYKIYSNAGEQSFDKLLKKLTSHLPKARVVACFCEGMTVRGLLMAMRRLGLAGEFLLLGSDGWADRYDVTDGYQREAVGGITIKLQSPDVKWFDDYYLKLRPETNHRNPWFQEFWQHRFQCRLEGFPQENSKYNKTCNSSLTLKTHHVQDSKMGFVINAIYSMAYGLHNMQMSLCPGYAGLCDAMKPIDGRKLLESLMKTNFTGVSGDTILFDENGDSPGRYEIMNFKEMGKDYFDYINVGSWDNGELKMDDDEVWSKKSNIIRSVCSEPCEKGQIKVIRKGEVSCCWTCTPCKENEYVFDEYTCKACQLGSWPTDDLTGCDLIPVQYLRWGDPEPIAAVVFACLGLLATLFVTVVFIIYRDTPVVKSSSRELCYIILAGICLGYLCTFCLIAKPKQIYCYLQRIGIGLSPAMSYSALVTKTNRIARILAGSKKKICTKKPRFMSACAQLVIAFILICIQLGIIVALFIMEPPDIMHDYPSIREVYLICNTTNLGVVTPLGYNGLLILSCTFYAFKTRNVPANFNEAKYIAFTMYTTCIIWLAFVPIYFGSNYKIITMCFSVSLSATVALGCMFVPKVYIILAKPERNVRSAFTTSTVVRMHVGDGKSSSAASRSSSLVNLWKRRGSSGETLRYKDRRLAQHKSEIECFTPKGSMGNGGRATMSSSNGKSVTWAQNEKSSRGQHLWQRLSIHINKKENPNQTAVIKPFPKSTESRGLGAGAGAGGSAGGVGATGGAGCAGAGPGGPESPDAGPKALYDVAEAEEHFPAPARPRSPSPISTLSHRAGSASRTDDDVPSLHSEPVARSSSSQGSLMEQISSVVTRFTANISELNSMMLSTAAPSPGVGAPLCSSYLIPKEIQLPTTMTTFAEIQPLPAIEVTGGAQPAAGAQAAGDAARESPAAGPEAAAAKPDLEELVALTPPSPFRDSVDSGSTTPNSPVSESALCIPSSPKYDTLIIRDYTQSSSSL
UniProt O00222, 34-908: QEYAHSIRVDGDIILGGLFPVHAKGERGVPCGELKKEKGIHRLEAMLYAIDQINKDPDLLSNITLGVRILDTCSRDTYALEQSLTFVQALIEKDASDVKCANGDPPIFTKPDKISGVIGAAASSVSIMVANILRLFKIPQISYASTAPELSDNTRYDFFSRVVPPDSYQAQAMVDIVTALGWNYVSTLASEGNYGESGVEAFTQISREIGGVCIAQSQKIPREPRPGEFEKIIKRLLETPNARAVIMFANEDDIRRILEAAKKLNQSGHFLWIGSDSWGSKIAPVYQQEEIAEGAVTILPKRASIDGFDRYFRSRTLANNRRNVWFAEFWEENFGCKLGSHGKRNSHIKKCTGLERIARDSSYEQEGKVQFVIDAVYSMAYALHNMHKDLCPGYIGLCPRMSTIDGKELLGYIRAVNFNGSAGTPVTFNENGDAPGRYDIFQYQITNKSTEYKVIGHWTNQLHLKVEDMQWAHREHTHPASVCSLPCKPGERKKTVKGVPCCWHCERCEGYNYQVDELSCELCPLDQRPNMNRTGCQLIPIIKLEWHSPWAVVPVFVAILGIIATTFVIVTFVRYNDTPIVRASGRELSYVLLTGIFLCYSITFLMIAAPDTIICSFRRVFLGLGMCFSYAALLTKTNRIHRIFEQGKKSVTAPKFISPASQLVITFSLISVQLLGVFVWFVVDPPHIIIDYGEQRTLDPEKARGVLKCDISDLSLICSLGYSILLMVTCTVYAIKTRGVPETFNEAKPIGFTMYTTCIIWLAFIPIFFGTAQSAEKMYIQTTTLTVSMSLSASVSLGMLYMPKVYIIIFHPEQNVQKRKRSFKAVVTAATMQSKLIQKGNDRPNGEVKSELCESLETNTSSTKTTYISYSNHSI
UniProt P29066, whole entry: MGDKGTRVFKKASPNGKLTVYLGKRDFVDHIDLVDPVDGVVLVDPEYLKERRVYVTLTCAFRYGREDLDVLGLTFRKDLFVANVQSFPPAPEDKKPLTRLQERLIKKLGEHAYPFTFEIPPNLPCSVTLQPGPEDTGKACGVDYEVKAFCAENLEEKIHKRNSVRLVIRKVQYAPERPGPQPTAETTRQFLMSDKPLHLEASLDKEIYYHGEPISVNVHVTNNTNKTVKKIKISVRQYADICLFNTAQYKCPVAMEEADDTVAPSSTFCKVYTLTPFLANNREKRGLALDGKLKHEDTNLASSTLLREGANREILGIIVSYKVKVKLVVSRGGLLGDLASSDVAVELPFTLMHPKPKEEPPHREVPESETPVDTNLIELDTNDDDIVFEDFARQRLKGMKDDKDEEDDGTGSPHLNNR

These are yes or no findings as the source states them, for the method shown. Some binding calls cover weakened binding; strength is not graded here.

As to “SNAP-mGluR8, wild type (subunit without HA for pulldown) (from UniProt O00222 34-908) (receptor)”, the binding result in assay [1] is “binds”.
Take “β-arr1-Halo (rat beta-arrestin 1, wild type, C-terminally Halo-tagged) (from UniProt P29066 1-418)”: the binding result in assay [1] is on record as “no binding (tested: <5% colocalization)”; in assay [2], “no binding”.

Source of the values: article doi:10.1101/2025.02.03.636340.
